{"source": "paper PMC7244035", "molecular_target": "T1, kinesin family member 23 (KIF23), endogenous (human (endogenous in MGC-803)) (UniProt Q02241)", "T1 sequence": "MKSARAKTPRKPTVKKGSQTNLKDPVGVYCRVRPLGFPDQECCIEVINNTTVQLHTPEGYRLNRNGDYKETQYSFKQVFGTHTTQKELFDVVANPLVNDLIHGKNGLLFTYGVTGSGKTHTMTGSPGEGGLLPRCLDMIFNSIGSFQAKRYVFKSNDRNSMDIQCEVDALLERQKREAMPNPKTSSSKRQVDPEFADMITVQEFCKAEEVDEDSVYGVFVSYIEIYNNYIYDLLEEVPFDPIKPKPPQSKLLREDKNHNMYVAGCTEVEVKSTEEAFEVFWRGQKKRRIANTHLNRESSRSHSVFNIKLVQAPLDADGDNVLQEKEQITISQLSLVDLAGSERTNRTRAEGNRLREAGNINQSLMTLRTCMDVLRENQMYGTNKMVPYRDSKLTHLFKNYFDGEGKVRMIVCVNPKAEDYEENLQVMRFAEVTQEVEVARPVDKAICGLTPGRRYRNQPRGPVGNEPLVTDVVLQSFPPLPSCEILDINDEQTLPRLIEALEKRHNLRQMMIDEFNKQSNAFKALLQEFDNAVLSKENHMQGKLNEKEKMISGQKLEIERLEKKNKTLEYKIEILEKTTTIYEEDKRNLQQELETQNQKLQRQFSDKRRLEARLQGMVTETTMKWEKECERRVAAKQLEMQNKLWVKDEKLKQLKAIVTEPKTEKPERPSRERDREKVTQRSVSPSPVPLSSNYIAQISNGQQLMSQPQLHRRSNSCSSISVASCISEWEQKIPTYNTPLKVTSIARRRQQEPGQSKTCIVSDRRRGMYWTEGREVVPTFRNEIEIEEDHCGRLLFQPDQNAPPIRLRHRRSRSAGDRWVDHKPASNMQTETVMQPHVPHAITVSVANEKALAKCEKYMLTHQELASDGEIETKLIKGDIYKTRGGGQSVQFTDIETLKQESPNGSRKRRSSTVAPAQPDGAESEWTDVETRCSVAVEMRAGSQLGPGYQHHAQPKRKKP", "assay": "affinity purification with mass spectrometry; IP of KIF23 from MGC-803 cells, SDS-PAGE with Coomassie blue staining, Nano-LC MS/MS", "note": "No constants are given. Whether binding was seen depends on the method and setting. In cells and extracts the contact can be indirect. These calls come from enrichment with a bait or labelling near it, and not all partners need be listed."}
{"binder": "APC membrane recruitment 1 (Amer1), endogenous (protein, UniProt Q5JTC6 1-1135) METQKDEAAQAKGAAASGSTREQTAEKGAKNKAAEATEGPTSEPSSSGPGRLKKTAMKLFGGKKGICTLPSFFGGGRSKGSGKGSSKKGLSKSKTHDGLSEAAHGPEDVVSEGTGFSLPLPELPCQFPSSQSAHGALETGSRCKTSVAGATEKAVAEKFPSMPKPKKGLKGFFSSIRRHRKSKVTGAEQSEPGAKGPERVRARPHEHVSSAPQVPCFEETFQAPRKENANPQDAPGPKVSPTPEPSPPATEKMACKDPEKPMEACASAHVQPKPAPEASSLEEPHSPETGEKVVAGEVNPPNGPVGDPLSLLFGDVTSLKSFDSLTGCGDIIAEQDMDSMTDSMASGGQRANRDGTKRSSCLVTYQGGGEEMALPDDDDEEEEEEEEVELEEEEEEVKEEEEDDDLEYLWETAQMYPRPNMNLGYHPTTSPGHHGYMLLDPVRSYPGLAPGELLTPQSDQQESAPNSDEGYYDSTTPGFEDDSGEALGLVRRDCLPRDSYSGDALYEFYEPDDSLENSPPGDDCLYDLHGRSSEMFDPFLNFEPFLSSRPPGAMETEEERLVTIQKQLLYWELRREQLEAQEARAREAHAREAHAREAYTREAYGREAYAREAHTWEAHGREARTREAQAREVRCRETQVRETQARQEKPVLEYQMRPLGPSVMGLAAGVSGTSQISHRGITSAFPTTASSEPDWRDFRPLEKRYEGTCSKKDQSTCLMQLFQSDAMFEPDMQEANFGGSPRRAYPTYSPPEDPEEEEVEKEGNATVSFSQALVEFTSNGNLFSSMSCSSDSDSSFTQNLPELPPMVTFDIADVERDGEGKCEENPEFHNDEDLAASLEAFELGYYHKHAFNNYHSRFYQGLPWGVSSLPRYLGLPGLHPRPPPAAMALNRRSRSLDTAETLEMELSNSHLVQGYLESDELQAQQEDSDEEDEEEEEGEWSRDSPLSLYTEPPGAYDWPAWAPCPLPVGPGPAWISPNQLDRPSSQSPYRQATCCIPPMTMSISLSVPESRAPGESGPQLARPSHLHLPMGPCYNLQPQASQSMRARPRDVLLPVDEPSCSSSSGGFSPSPLPQAKPVGITHGIPQLPRVRPEHPQPQPTHYGPSSLDLSKERAEQGASLATSYSSTAMNGNLAK", "values": [{"measurement": "binding", "value": "binds"}]}
